Measured values: paper PMC2923601
No constants are given. Whether binding was seen depends on the method and setting. For part of these data: In cells and extracts the contact can be indirect. Some binding calls cover weakened binding; strength is not graded here.

How the values were obtained:
[1] = target: T1, full-length human DNA polymerase lambda (human) (UniProt Q9UGP5); test: co-IP; 1.5 µM equimolar mixture of purified DNA polymerase and DNA glycosylase with antibody to one of them, 50 µl, 4 h at 4°C; binding buffer 25 mM Tris-HCl pH 8, 10% glycerol, 100 mM NaCl, 0.01% Nonidet P-40; protein A/G or anti-rabbit IgG beads; immunoblot; both purified
T1 sequence: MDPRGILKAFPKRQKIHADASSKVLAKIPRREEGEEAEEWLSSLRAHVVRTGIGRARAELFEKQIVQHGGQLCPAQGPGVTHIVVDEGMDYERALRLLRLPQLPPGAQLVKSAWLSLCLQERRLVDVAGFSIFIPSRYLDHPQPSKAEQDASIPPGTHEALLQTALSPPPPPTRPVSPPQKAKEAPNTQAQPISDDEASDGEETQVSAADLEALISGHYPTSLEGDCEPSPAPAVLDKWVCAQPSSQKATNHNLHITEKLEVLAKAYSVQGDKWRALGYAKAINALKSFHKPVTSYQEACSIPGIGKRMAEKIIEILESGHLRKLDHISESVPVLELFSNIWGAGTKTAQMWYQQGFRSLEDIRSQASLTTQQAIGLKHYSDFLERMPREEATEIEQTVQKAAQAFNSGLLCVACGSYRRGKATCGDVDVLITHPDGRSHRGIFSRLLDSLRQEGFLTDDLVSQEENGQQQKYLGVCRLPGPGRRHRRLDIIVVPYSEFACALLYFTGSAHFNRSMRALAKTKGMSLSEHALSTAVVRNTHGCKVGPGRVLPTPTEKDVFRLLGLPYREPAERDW

[2] = target: T2, DNA polymerase lambda (endogenous, mouse fibroblast extract) (mouse (endogenous in mouse fibroblasts)) (UniProt Q9QXE2); test: co-IP; 1 mg mouse fibroblast cell extract with 0.7 mg antibody or non-immune IgG, 4 h at 4°C; TrueBlot anti-rabbit IgG IP beads overnight; lysis buffer 50 mM Tris-HCl pH 7.5, 150 mM NaCl, 0.2% Triton X-100, 0.3% Nonidet P-40; immunoblot; knockout cell extracts as controls
T2 sequence: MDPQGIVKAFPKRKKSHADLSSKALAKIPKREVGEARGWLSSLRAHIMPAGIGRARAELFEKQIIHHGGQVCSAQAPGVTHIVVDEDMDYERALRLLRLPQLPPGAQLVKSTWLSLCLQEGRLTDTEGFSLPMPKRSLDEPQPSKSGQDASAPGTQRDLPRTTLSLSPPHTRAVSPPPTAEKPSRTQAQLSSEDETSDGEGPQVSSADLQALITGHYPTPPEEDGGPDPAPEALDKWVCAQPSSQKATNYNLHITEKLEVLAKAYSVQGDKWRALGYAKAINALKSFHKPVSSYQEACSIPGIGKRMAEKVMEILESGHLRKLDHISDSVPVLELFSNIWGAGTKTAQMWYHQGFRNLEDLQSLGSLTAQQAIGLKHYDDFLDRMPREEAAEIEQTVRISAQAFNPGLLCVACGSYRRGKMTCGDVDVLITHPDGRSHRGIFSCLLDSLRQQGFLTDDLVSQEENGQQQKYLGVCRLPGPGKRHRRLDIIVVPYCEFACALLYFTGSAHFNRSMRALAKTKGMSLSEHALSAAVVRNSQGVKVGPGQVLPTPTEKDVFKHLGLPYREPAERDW

[3] = target: 8-oxoguanine-DNA glycosylase 1 (OGG1) (endogenous, mouse fibroblast extract) (mouse (endogenous in mouse fibroblasts)) (UniProt O08760); test: as above

## human alkyladenine-DNA glycosylase (AAG) (from UniProt P29372 18-298) (enzyme)
[1]
  binding: binds

## 8-oxoguanine-DNA glycosylase 1 (OGG1) (endogenous, mouse fibroblast extract) (from UniProt O08760 1-345) (enzyme)
[2]
  binding: binds

B1: DNA polymerase lambda (endogenous, mouse fibroblast extract) (enzyme, UniProt Q9QXE2 1-573)
chain: T2 sequence
[3]
  binding: binds
